Hit rate of the full screen: of about 320,000 compounds, about 22,000 (6.9%) were called active. Inconclusive means that the source gave no clear call. Such entries were picked first, then a sample of the others. The call rests on the fitted dose curve; in most records, active means well fitted inhibition curve with a large enough effect; inconclusive means small, poorly fitted or top-dose-only effect, or another doubt; inactive means no such curve, though single readings can be large or run the other way. Where the call is inconclusive, the potency comes from a doubtful curve fit.
Assay: Primary qHTS for delayed death inhibitors of the malarial parasite plastid, 96 hour incubation
Conditions: P. falciparum luciferase reporter growth; series mostly up to 28.7 µM; activity change, negative = inhibition: at the top concentration
How it was run: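 P. falciparum expressing integrated firefly luciferase grown in erythrocytes (2% hematocrit, 0.05% parasitemia final) with compounds for 96 hours at 37 C, 5% CO2. Growth inhibition read as loss of luminescence after adding luciferase detection reagent.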
On the % scale 0 is the no-effect control and ±100 the full control effect; potency means the concentration at half of the fitted maximal effect.

Compound | Potency | activity change, negative = inhibition
Cc1ccc(/C=N/NC(=O)c2c[nH]c3ccccc23)o1 | inconclusive: 2.08 µM [inhibitor, partial curve, poor fit] | –
COc1ccc(NC(=O)Nc2cccc(NC(C)=O)c2)c(OC)c1 | active: 11.7 µM | –
COC1(OC)N=C(N)C2(C#N)C(c3cccc(Oc4ccccc4)c3)C12C#N (centres undefined) | inconclusive: 9.28 µM [inhibitor, partial curve] | –
CCC(C)(C)NC(=O)C(c1ccc(C)cc1)N(CC1CCCO1)C(=O)c1csnn1 (centres undefined) | inconclusive: 1.31 µM [inhibitor, partial curve, poor fit] | –
CC(=O)Nc1ccc(NC(=O)Cc2ccc(S(=O)(=O)N3CCCCC3)s2)cc1 | inconclusive: 18.5 µM [inhibitor, partial curve, poor fit] | –
O=C(NC(=S)Nc1cccc([N+](=O)[O-])c1)C1CCCCC1 | – | inactive: -16.9%
O=C(NCCN1CCN(c2ccccc2Cl)CC1)Nc1ccccc1 | – | inactive: -29.4%
S=C(Nc1ccc(Cl)cc1Cl)Nc1ccccc1Oc1ccccc1 | inconclusive: 1.31 µM [inhibitor, full curve, poor fit] | –
CC1CC(C)CN(CCOCCSc2ccccc2)C1 (centres undefined) | inconclusive: 10.4 µM [inhibitor, single point] | –
CC(=O)n1cc([C@@H]2C=C(C(=O)Nc3ccccc3)O[C@H](OCCCCO)C2)c2ccccc21 | inconclusive: 10.4 µM [inhibitor, single point] | –
Cc1ccc(N(CC(=O)Nc2ccccc2-c2ccccc2)S(=O)(=O)c2ccccc2)c(C)c1 | inconclusive: 11.7 µM [inhibitor, single point] | –
COc1cc(OC)nc(Oc2ccccc2C(=O)Oc2ccc(C)cc2)n1 | inconclusive: 0.0586 µM [inhibitor, full curve, poor fit] | –
CN1CCN(/N=C/c2ccc(N(c3ccccc3)c3ccccc3)cc2)CC1 | inconclusive: 3.7 µM [inhibitor, single point] | –
CCCCOCCCNS(=O)(=O)Cc1ccccc1 | inconclusive: 10.4 µM [inhibitor, single point] | –
CCCCC1=CC2=CC(=O)C(C)(OC(=O)CC)C(=O)C2=CN1CCc1ccc(Br)cc1 (centres undefined) | inconclusive: 2.33 µM [inhibitor, full curve] | –
N#CC(C#N)=NNc1ccc([N+](=O)[O-])cc1 | inconclusive: 18.5 µM [inhibitor, single point] | –
COc1ccc(OC)c(S(=O)(=O)N2CCN(C(=O)NC3CCCCC3)CC2)c1 | – | inactive: 38.6%
O=C(NCCN1CCOCC1)C(=O)NCC1OCCCN1S(=O)(=O)c1cc(F)ccc1F (centres undefined) | – | inactive: 62%
CCN(CC)C(=O)c1[nH]cnc1C(=O)Nc1ccc(Cl)cc1 | inconclusive: 16.5 µM [inhibitor, single point] | –
COc1ccc(-n2ncc3c(NCc4cccnc4)ncnc32)cc1 | – | inactive: 213%
CCN(CC)CCCNC(=O)c1ccc2c3n(nc2c1)-c1ccc(Cl)cc1CO3 | inconclusive: 18.5 µM [inhibitor, single point] | –
O=C(CSCc1ccccc1)NCCc1ccc(F)cc1 | – | inactive: -11.8%

Compound | Potency | activity change, negative = inhibition
Cc1ccc(SCC(=O)Nc2ccc(C(=O)Nc3ccc(O)cc3)cc2)cc1 | inconclusive: 0.928 µM [inhibitor, partial curve] | –
Cc1cc(NC(=O)CCN2CCN(Cc3ccccc3)CC2)ccc1Br | inconclusive: 6.57 µM [inhibitor, partial curve, poor fit] | –
O=C1NC(=O)N(c2cccc(Br)c2)C(=O)/C1=C/c1ccsc1 | inconclusive: 18.5 µM [inhibitor, single point] | –
CCSc1nnc(NC(=O)CSc2nnc(CNC(=O)c3ccc(OC)cc3)o2)s1 | inconclusive: 5.86 µM [inhibitor, partial curve, poor fit] | –
CCCCSc1nnc(-c2c[nH]c3ccccc23)n1C | inconclusive: 0.586 µM [inhibitor, full curve] | –
O=C(CCC1CCCN(C(=O)c2ccc3[nH]ccc3c2)C1)N1CCN(c2ccccn2)CC1 (centres undefined) | – | inactive: 400%
COc1ccccc1OCc1ccc(C(=O)NC2CCCCC2)o1 | – | inactive: -22.4%
O=S(=O)(c1ccccc1)n1cc(-c2ccccn2)c(N2CCOCC2)n1 | inconclusive: 4.15 µM [inhibitor, single point] | –
COc1ccc(NC(=O)c2cc(-c3ccc(C)cc3)on2)cc1 | – | inactive: -26.3%
O=C(c1ccco1)N1CCN(CC(O)Cn2c3ccccc3c3ccccc32)CC1 (centres undefined) | inconclusive: 4.15 µM [inhibitor, partial curve, poor fit] | –
O=C(CC1Sc2ccccc2NC1=O)OCC(=O)N1CCc2ccccc21 (centres undefined) | inconclusive: 13.1 µM [inhibitor, partial curve] | –
C/C(=N\NC(=O)c1ccoc1C)c1ccc(Br)s1 | – | inactive: -9.21%
COc1ccc(C(=O)NC(C)CCCC(C)(C)O)cc1OC1CCN(C(C)=O)CC1 (centres undefined) | active: 7.38 µM | –
Cc1cccc(N2C(N)=NC(N)=NC23CCCCC3)c1 | inconclusive: 1.47 µM [inhibitor, full curve, poor fit] | –
COc1ccc(N(C(=O)CNC(=O)c2ccco2)C(C(=O)NC2CCCC2)c2ccncc2)cc1 (centres undefined) | active: 2.62 µM | –
Cc1nc2ccccc2nc1OCC(=O)Nc1ccc2ccccc2c1 | inconclusive: 13.1 µM [inhibitor, single point] | –
O=C(Cn1cc2c(n1)CCCC2)Nc1ccccc1Cl | inconclusive: 4.15 µM [inhibitor, partial curve, poor fit] | –
Cc1ccc(C(=O)N/C(=C\c2ccc(-c3ccccc3[N+](=O)[O-])o2)C(=O)NCCCN(C)C)cc1 | active: 5.22 µM | –
CN(CC(=O)Nc1ccc(N2CCOCC2)cc1)C(=O)CCc1ccccc1Cl | – | inactive: -11.4%
CCOC(=O)CN1CC23C=CC(O2)C(C(=O)NCc2cccs2)C3C1=O (centres undefined) | inconclusive: 0.928 µM [inhibitor, partial curve, poor fit] | –
CC(=O)/C(=N\Nc1ccccc1)Sc1nnc(-c2ccccc2)n1-c1ccccc1 | inconclusive: 2.94 µM [inhibitor, single point] | –
O=C(Cn1ccc2cc(S(=O)(=O)N3CCCCC3)ccc21)NCc1ccccc1F | – | inactive: 17.5%

A stretch from the list above, for reference:
Compound | Potency | activity change, negative = inhibition
CCCCSc1nnc(-c2c[nH]c3ccccc23)n1C | inconclusive: 0.586 µM [inhibitor, full curve] | –
O=C(CCC1CCCN(C(=O)c2ccc3[nH]ccc3c2)C1)N1CCN(c2ccccn2)CC1 (centres undefined) | – | inactive: 400%
